Reference: PubChem BioAssay AID330 (DTP/NCI, 2004)
The list does not hold the whole screen: it is rich in T/C values a quarter to a half above the control, in often repeated tests (any T/C) and in doses without a T/C. Other doses and runs of a compound stand elsewhere. T/C is the treated group as % of the vehicle group. Some entries give survivors of the animals treated and no T/C: the source files T/C as zero there, which appears to mark a toxic dose or a test without result, not a measured value. Some doses without a T/C left all or most animals alive at the check, yet need not have been tolerated: survival well below the control is almost never listed, so the zero probably covers shortened survival too. Counts of survivors are from the toxicity check (mostly the fifth day) where no day follows; animals may have died later. Schedules are NCI's codes, taken here to give the interval after Q, in days (D) or hours (H), and the number of doses after X. Some entries were tested several times; their values stand side by side, smallest first. For survival time, this PubChem deposit counts one and a half times the control or more as active, and values a quarter to a half above the control carry no call in these data; other NCI protocols may use other cut-offs. Some T/C values carry the count of animals alive at the toxicity check (mostly the fifth day); without a count, all were alive then.

System: P388 leukemia ip, CD2F1 mice, survival T/C
Experiment: NCI In Vivo Anticancer Drug Screen. Data for tumor model P388 Leukemia (intraperitoneal) in CD2F1 (CDF1) mice
Details: T/C endpoint: median survival time, higher T/C = longer survival
[1] = dose: 50.0 mg/kg/injection, schedule: Q01DX009 (ip), vehicle: saline
[2] = dose: 100.0 mg/kg/injection, schedule: Q01DX009 (ip), vehicle: saline
[3] = dose: 200.0 mg/kg/injection, schedule: Q01DX009 (ip), vehicle: saline
[4] = dose: 100.0 mg/kg/injection, schedule: Q01DX005 (ip), vehicle: saline with Tween-80
[5] = dose: 200.0 mg/kg/injection, schedule: Q01DX005 (ip), vehicle: saline with Tween-80
[6] = dose: 50.0 mg/kg/injection, schedule: Q01DX009 (ip), vehicle: saline with Tween-80
[7] = dose: 200.0 mg/kg/injection, schedule: Q01DX005 (ip), vehicle: Klucel (hydroxypropylcellulose) (HPC)
[8] = dose: 200.0 mg/kg/injection, schedule: Q01DX009 (ip), vehicle: saline with Tween-80
[9] = dose: 60.0 mg/kg/injection, schedule: Q01DX005 (ip), vehicle: saline with Tween-80
[10] = dose: 240.0 mg/kg/injection, schedule: Q01DX005 (ip), vehicle: saline with Tween-80
[11] = dose: 200.0 mg/kg/injection, schedule: Q01DX009 (ip), vehicle: Klucel (hydroxypropylcellulose) (HPC)
[12] = dose: 50.0 mg/kg/injection, schedule: Q01DX005 (ip), vehicle: saline with Tween-80
[13] = dose: 100.0 mg/kg/injection, schedule: Q01DX009 (ip), vehicle: saline with Tween-80

`CCOC(=O)/[C](=N\N=P(N(C)C)(N(C)C)N(C)C)[Hg]/[C](=N/N=P(N(C)C)(N(C)C)N(C)C)C(=O)OCC` was tested. Which T/C [1] did it give?
The T/C was 125 % of control.

And the survivor count [2]?
Its survivor count is 0 of 6.

What about the survivor count [3] of the same molecule?
Its survivor count is 0 of 6.

Which survivor count [4] does the source give for `C/C(N=NC(=S)N1CCSCC1)=C1\C=CC=CN1O` here?
Its survivor count is 3 of 6.

How did the survivor count [5] turn out when `COc1cccc(C(=O)N/N=C(\C#N)c2cccc(OC)c2)c1` was run?
Its survivor count is 6 of 6.

Which survivor count (dose: 400.0 mg/kg/injection, schedule: Q04DX002 (ip), vehicle: saline with Tween-80) does the source give for `NC(C[O-])C(=O)[O-].NCC(=O)[O-].[Mn+3]` (stereo not drawn) here?
Its survivor count is 6 of 6.

With `CCCCCCCCCCCCCCCc1ccc(C(=O)C[n+]2ccccc2)cc1` as the molecule, how does the T/C (dose: 12.5 mg/kg/injection, schedule: Q01DX009 (ip), vehicle: saline with Tween-80) read?
Its T/C is 133 % of control.

And the survivor count (dose: 25.0 mg/kg/injection, schedule: Q01DX009 (ip), vehicle: saline with Tween-80)?
The survivor count was 3 of 6.

What about the T/C (dose: 25.0 mg/kg/injection, schedule: Q04DX003 (ip), vehicle: saline with Tween-80) of the same molecule?
The T/C was 136 % of control.

And the T/C (dose: 37.5 mg/kg/injection, schedule: Q04DX003 (ip), vehicle: saline with Tween-80)?
Its T/C is 125 % of control [5 of 6 alive].

And the survivor count [6]?
Its survivor count is 0 of 6.

For `NC(=O)C(Cc1ccccc1)NC(=O)C(CSCc1ccccc1)NC(=O)OCc1ccccc1` (stereo not drawn), which survivor count (dose: 100.0 mg/kg/injection, schedule: Q01DX005 (ip), vehicle: Klucel (hydroxypropylcellulose) (HPC)) is on record?
The survivor count was 6 of 6.

And the survivor count [7]?
The survivor count was 6 of 6.

`CCOC(=O)Oc1ccc(/C=N/NC(N)=S)nc1` was tested. Which survivor count [8] did it give?
Its survivor count is 6 of 6.

What does the source list for `O=C(N1CCCCC1Cc1ccccc1)C(Cl)(Cl)Cl` (stereo not drawn)?
survivor count (dose: 120.0 mg/kg/injection, schedule: Q01DX005 (ip), vehicle: Klucel (hydroxypropylcellulose) (HPC)): 0 of 6; survivor count (dose: 240.0 mg/kg/injection, schedule: Q01DX005 (ip), vehicle: Klucel (hydroxypropylcellulose) (HPC)): 0 of 6

Which results are given for `CCC(c1ccc(O)cc1)C(CC)c1ccc(O)c(CN(C)C)c1` (stereo not drawn)?
survivor count [9]: 5 of 6; survivor count [10]: 0 of 6

How did the survivor count [11] turn out when `OC1(C2NCCc3ccccc32)CCN(CCc2ccccc2)CC1` (stereo not drawn) was run?
The survivor count was 0 of 6.

What does the source list for `CCOC(=O)N1CCN(C(=S)N/N=C(\C)c2ncccn2)CC1`?
survivor count (dose: 25.0 mg/kg/injection, schedule: Q01DX005 (ip), vehicle: saline with Tween-80): 1 of 6; survivor count [12]: 0 of 6; survivor count [4]: 0 of 6; survivor count [5]: 0 of 6

With `CC(C)c1ccc(O)c(=O)cc1` as the molecule, how does the survivor count [8] read?
Its survivor count is 0 of 6.

Which survivor count (dose: 100.0 mg/kg/injection, schedule: Q01DX001 (ip), vehicle: other) does the source give for `NSc1ccc([N+](=O)[O-])cc1` here?
Its survivor count is 2 of 6.

With `FC(F)(F)c1nc(Cl)nc(Cl)c1Cl` as the molecule, how does the survivor count [12] read?
Its survivor count is 0 of 6.

And the survivor count [4]?
Its survivor count is 0 of 6.

And the survivor count [5]?
The survivor count was 0 of 6.

Which results are given for `Oc1cc(O)cc(/C=C/c2ccc(O)c(O)c2)c1`?
T/C (dose: 25.0 mg/kg/injection, schedule: Q01DX009 (ip), vehicle: DMSO): 131 % of control; T/C (dose: 50.0 mg/kg/injection, schedule: Q01DX009 (ip), vehicle: DMSO): 131 % of control [5 of 6 alive]

For `CN(C)C(=O)SC1=C(c2c(Cl)cccc2Cl)C(=O)c2ccccc21`, which survivor count (dose: 400.0 mg/kg/injection, schedule: Q01DX005 (ip), vehicle: Klucel (hydroxypropylcellulose) (HPC)) is on record?
The survivor count was 1 of 6.

Which survivor count [11] does the source give for `CCC(CCC(C)C1CCC2C3CC=C4CC(O)CCC4(C)C3CCC12C)C(C)C` (stereo not drawn) (tested in a mixture with another compound) here?
Its survivor count is 0 of 6.

Which survivor count (dose: 50.0 mg/kg/injection, schedule: Q01DX009 (ip), vehicle: Klucel (hydroxypropylcellulose) (HPC)) does the source give for `CSc1nc2ccc(N3C(=O)C=CC3=O)cc2s1` here?
Its survivor count is 1 of 6.

What about the survivor count (dose: 100.0 mg/kg/injection, schedule: Q01DX009 (ip), vehicle: Klucel (hydroxypropylcellulose) (HPC)) of the same molecule?
The survivor count was 2 of 6.

And the survivor count [11]?
The survivor count was 0 of 6.

For `N/N=C/c1cccn1-c1ccccc1Cl`, which survivor count [10] is on record?
The survivor count was 1 of 6.

Which results are given for `O=[n+]1ccn([O-])c2ccccc21.[Ni].[O-][Cl+3]([O-])([O-])O`?
T/C [6]: 132 % of control; survivor count [13]: 4 of 6; survivor count [8]: 0 of 6

Which T/C (dose: 2.2 mg/kg/injection, schedule: Q01DX001 (ip), vehicle: saline) does the source give for `COc1cccc2c1C(=O)c1c(O)c3c(c(O)c1C2=O)CC(O)(C(=O)CO)CC3OC1CC(N)C(I)C(C)O1` (stereo not drawn) here?
The T/C was 134 % of control.

And the T/C (dose: 3.3 mg/kg/injection, schedule: Q01DX001 (ip), vehicle: saline)?
The T/C was 148 % of control.

What does the source list for `CC(C)(C)c1cc2c3c(c1)C(C(F)(F)F)(C(F)(F)F)OS3(O)OC2(C(F)(F)F)C(F)(F)F`?
survivor count (dose: 50.0 mg/kg/injection, schedule: Q01DX005 (ip), vehicle: suspension in saline): 3 of 6; survivor count (dose: 100.0 mg/kg/injection, schedule: Q01DX005 (ip), vehicle: suspension in saline): 0 of 6

How did the T/C (dose: 100.0 mg/kg/injection, schedule: Q01DX001 (ip), vehicle: saline) turn out when `NCCCNCCCCNCCCN` was run?
Its T/C is 128 % of control [5 of 6 alive].

And the survivor count (dose: 200.0 mg/kg/injection, schedule: Q01DX001 (ip), vehicle: saline)?
Its survivor count is 3 of 6.

And the survivor count (dose: 400.0 mg/kg/injection, schedule: Q01DX001 (ip), vehicle: saline)?
Its survivor count is 0 of 6.

What does the source list for `COCCCNC1=C(C#N)C(=O)NC(c2cccc([N+](=O)[O-])c2)S1` (stereo not drawn)?
T/C [6]: 125 % of control; T/C [13]: 133 % of control; T/C [8]: 137 % of control; T/C (dose: 400.0 mg/kg/injection, schedule: Q01DX009 (ip), vehicle: saline with Tween-80): 142 % of control

`CCCCCCCC/C=C\CCCCCCCC(=O)NCCCN(C)C` was tested. Which survivor count [1] did it give?
Its survivor count is 0 of 6.

What about the survivor count [13] of the same molecule?
The survivor count was 1 of 6.

What about the survivor count [8] of the same molecule?
The survivor count was 0 of 6.

Which survivor count [7] does the source give for `O=S(=O)(F)C(Br)(Br)S(=O)(=O)F` here?
Its survivor count is 2 of 6.

`S=CN1CCCCC1` was tested. Which survivor count [9] did it give?
Its survivor count is 0 of 6.

What about the survivor count (dose: 120.0 mg/kg/injection, schedule: Q01DX005 (ip), vehicle: saline with Tween-80) of the same molecule?
The survivor count was 0 of 6.

What about the survivor count [10] of the same molecule?
The survivor count was 0 of 6.

Which T/C [12] does the source give for `CC/C(=N\NC(=S)SC)c1ccccn1` here?
Its T/C is 117, 127, 133 % of control.

What about the survivor count [12] of the same molecule?
The survivor count was 6 of 6.

And the survivor count [4]?
Its survivor count is 4 of 6 and 4 of 5.

What about the survivor count [5] of the same molecule?
Its survivor count is 2 of 5.

How did the survivor count [10] turn out when `COc1ccc(/C=C/C(=O)C(C)(C)CN(C)CCN(C)C)cc1` was run?
Its survivor count is 0 of 6.

`CC(C)CC(NC(=O)OCc1ccccc1)C(=O)O` (stereo not drawn) was tested. Which survivor count [5] did it give?
Its survivor count is 0 of 6.

What does the source list for `CC1(C)N=C(N)N=C(N)N1c1ccc(CCCCc2ccc(S(=O)(=O)F)cc2)c(Cl)c1`?
survivor count (dose: 100.0 mg/kg/injection, schedule: Q04DX003 (ip), vehicle: saline): 6 of 6; survivor count (dose: 200.0 mg/kg/injection, schedule: Q04DX003 (ip), vehicle: saline): 0 of 6; survivor count (dose: 400.0 mg/kg/injection, schedule: Q04DX003 (ip), vehicle: saline): 1 of 6

`FC(F)(F)/C([S-])=C(/[S-])C(F)(F)F.FC(F)(F)/C([S-])=C(/[S-])C(F)(F)F.FC(F)(F)/C([S-])=C(/[S-])C(F)(F)F.FC(F)(F)/C([S-])=C(/[S-])C(F)(F)F.[Co+3].[Co+3]` was tested. Which survivor count (dose: 75.0 mg/kg/injection, schedule: Q04DX003 (ip), vehicle: other) did it give?
Its survivor count is 6 of 6.

Which results are given for `CC(C)[N+](C)(C)CC(O)COc1cccc2ccccc12` (stereo not drawn)?
survivor count [2]: 2 of 6; survivor count [3]: 0 of 6

How did the survivor count [10] turn out when `CC(=O)[O-].O=C(N/N=C/c1ccccc1[O-])c1ccccc1.[Zn+2]` was run?
Its survivor count is 4 of 6.

`O=C(Nc1ccc(NC(=O)Nc2ccc(C3=NCCN3)cc2)cc1)Nc1ccc(C2=NCCN2)cc1` was tested. Which T/C (dose: 250.0 mg/kg/injection, schedule: Q01DX010 (ip), vehicle: saline) did it give?
The T/C was 131 % of control.

What about the T/C (dose: 375.0 mg/kg/injection, schedule: Q01DX010 (ip), vehicle: saline) of the same molecule?
The T/C was 131 % of control.

`C/C=C1/CNC2Cc3c([nH]c4ccccc34)C(c3ccc4c5c([nH]c4c3)C3CC4CC(CC)C3N(CC5)C4)CC1C2C(=O)OC` (stereo not drawn) was tested. Which survivor count (dose: 10.0 mg/kg/injection, schedule: Q01DX009 (ip), vehicle: saline) did it give?
Its survivor count is 5 of 6.
